Results are given in words; binding and its absence hold for the method and conditions named. Binding seen in cells or lysates may run through a third protein. Some results given as binding are weak or reduced against the parent protein; the word gives no strength.
Tests used:
[1] = molecular target: DDX6 (human (endogenous in HCT116)) (UniProt P26196); experiment: co-IP; endogenous DDX6 immunoprecipitated from HCT116 lysates (300 ug protein; E1A buffer; antibody overnight at 4°C, protein A/G beads), IgG control, Western blot; control, DCP1a KO and DCP1b KO cells
[2] = molecular target: DCP2 (human (endogenous in HCT116)) (UniProt Q8IU60); experiment: co-IP; endogenous DCP2 immunoprecipitated from HCT116 lysates (300 ug protein; E1A buffer with 150 mM NaCl, 0.5% IGEPAL; antibody overnight at 4°C, protein A/G beads), Western blot; control, shLUC, shDCP1a, shDCP1b, DCP1a KO and DCP1b KO cells, with or without ectopic DCP1b

By UniProt entry, the sequences of proteins in these tests, tags left out.
UniProt P26196: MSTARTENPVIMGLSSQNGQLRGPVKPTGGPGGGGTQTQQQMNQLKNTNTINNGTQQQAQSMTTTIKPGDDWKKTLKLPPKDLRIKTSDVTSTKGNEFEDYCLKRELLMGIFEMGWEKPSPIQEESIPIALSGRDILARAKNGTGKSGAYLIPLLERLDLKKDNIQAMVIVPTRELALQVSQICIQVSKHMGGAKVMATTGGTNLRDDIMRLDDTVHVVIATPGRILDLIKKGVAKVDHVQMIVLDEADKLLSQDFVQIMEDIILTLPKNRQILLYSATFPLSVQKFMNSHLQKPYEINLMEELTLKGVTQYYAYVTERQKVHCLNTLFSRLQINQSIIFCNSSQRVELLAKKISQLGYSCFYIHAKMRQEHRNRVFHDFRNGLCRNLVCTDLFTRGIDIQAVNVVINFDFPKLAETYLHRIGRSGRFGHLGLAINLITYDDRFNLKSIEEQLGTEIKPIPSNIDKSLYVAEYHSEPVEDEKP

| Binder | binding [1] | binding [2] |
| --- | --- | --- |
| EDC4 (protein, UniProt Q6P2E9 1-1401) MASCASIDIEDATQHLRDILKLDRPAGGPSAESPRPSSAYNGDLNGLLVPDPLCSGDSTSANKTGLRTMPPINLQEKQVICLSGDDSSTCIGILAKEVEIVASSDSSISSKARGSNKVKIQPVAKYDWEQKYYYGNLIAVSNSFLAYAIRAANNGSAMVRVISVSTSERTLLKGFTGSVADLAFAHLNSPQLACLDEAGNLFVWRLALVNGKIQEEILVHIRQPEGTPLNHFRRIIWCPFIPEESEDCCEESSPTVALLHEDRAEVWDLDMLRSSHSTWPVDVSQIKQGFIVVKGHSTCLSEGALSPDGTVLATASHDGYVKFWQIYIEGQDEPRCLHEWKPHDGRPLSCLLFCDNHKKQDPDVPFWRFLITGADQNRELKMWCTVSWTCLQTIRFSPDIFSSVSVPPSLKVCLDLSAEYLILSDVQRKVLYVMELLQNQEEGHACFSSISEFLLTHPVLSFGIQVVSRCRLRHTEVLPAEEENDSLGADGTHGAGAMESAAGVLIKLFCVHTKALQDVQIRFQPQLNPDVVAPLPTHTAHEDFTFGESRPELGSEGLGSAAHGSQPDLRRIVELPAPADFLSLSSETKPKLMTPDAFMTPSASLQQITASPSSSSSGSSSSSSSSSSSLTAVSAMSSTSAVDPSLTRPPEELTLSPKLQLDGSLTMSSSGSLQASPRGLLPGLLPAPADKLTPKGPGQVPTATSALSLELQEVEPLGLPQASPSRTRSPDVISSASTALSQDIPEIASEALSRGFGSSAPEGLEPDSMASAASALHLLSPRPRPGPELGPQLGLDGGPGDGDRHNTPSLLEAALTQEASTPDSQVWPTAPDITRETCSTLAESPRNGLQEKHKSLAFHRPPYHLLQQRDSQDASAEQSDHDDEVASLASASGGFGTKVPAPRLPAKDWKTKGSPRTSPKLKRKSKKDDGDAAMGSRLTEHQVAEPPEDWPALIWQQQRELAELRHSQEELLQRLCTQLEGLQSTVTGHVERALETRHEQEQRRLERALAEGQQRGGQLQEQLTQQLSQALSSAVAGRLERSIRDEIKKTVPPCVSRSLEPMAGQLSNSVATKLTAVEGSMKENISKLLKSKNLTDAIARAAADTLQGPMQAAYREAFQSVVLPAFEKSCQAMFQQINDSFRLGTQEYLQQLESHMKSRKAREQEAREPVLAQLRGLVSTLQSATEQMAATVAGSVRAEVQHQLHVAVGSLQESILAQVQRIVKGEVSVALKEQQAAVTSSIMQAMRSAAGTPVPSAHLDCQAQQAHILQLLQQGHLNQAFQQALTAADLNLVLYVCETVDPAQVFGQPPCPLSQPVLLSLIQQLASDLGTRTDLKLSYLEEAVMHLDHSDPITRDHMGSVMAQVRQKLFQFLQAEPHNSLGKAARRLSLMLHGLVTPSLP | binds | binds |
| EDC3 (protein, UniProt Q96F86 1-508) MATDWLGSIVSINCGDSLGVYQGRVSAVDQVSQTISLTRPFHNGVKCLVPEVTFRAGDITELKILEIPGPGDNQHFGDLHQTELGPSGAGCQVGINQNGTGKFVKKPASSSSAPQNIPKRTDVKSQDVAVSPQQQQCSKSYVDRHMESLSQSKSFRRRHNSWSSSSRHPNQATPKKSGLKNGQMKNKDDECFGDDIEEIPDTDFDFEGNLALFDKAAVFEEIDTYERRSGTRSRGIPNERPTRYRHDENILESEPIVYRRIIVPHNVSKEFCTDSGLVVPSISYELHKKLLSVAEKHGLTLERRLEMTGVCASQMALTLLGGPNRLNPKNVHQRPTVALLCGPHVKGAQGISCGRHLANHDVQVILFLPNFVKMLESITNELSLFSKTQGQQVSSLKDLPTSPVDLVINCLDCPENVFLRDQPWYKAAVAWANQNRAPVLSIDPPVHEVEQGIDAKWSLALGLPLPLGEHAGRIYLCDIGIPQQVFQEVGINYHSPFGCKFVIPLHSA | – | binds |
| DCP1b (protein, UniProt Q8IZD4 1-617) MAAVAAGGLVGKGRDISLAALQRHDPYINRIVDVASQVALYTFGHRANEWEKTDVEGTLFVYTRSASPKHGFTIMNRLSMENRTEPITKDLDFQLQDPFLLYRNARLSIYGIWFYDKEECQRIAELMKNLTQYEQLKAHQGTGAGISPVILNSGEGKEVDILRMLIKAKDEYTKCKTCSEPKKITSSSAIYDNPNLIKPIPVKPSENQQQRIPQPNQTLDPEPQHLSLTALFGKQDKATCQETVEPPQTLHQQQQQQQQQQEKLPIRQGVVRSLSYEEPRRHSPPIEKQLCPAIQKLMVRSADLHPLSELPENRPCENGSTHSAGEFFTGPVQPGSPHNIGTSRGVQNASRTQNLFEKLQSTPGAANKCDPSTPAPASSAALNRSRAPTSVTPVAPGKGLAQPPQAYFNGSLPPQTVGHQAHGREQSTLPRQTLPISGSQTGSSGVISPQELLKKLQIVQQEQQLHASNRPALAAKFPVLAQSSGTGKPLESWINKTPNTEQQTPLFQVISPQRIPATAAPSLLMSPMVFAQPTSVPPKERESGLLPVGGQEPPAAATSLLLPIQSPEPSVITSSPLTKLQLQEALLYLIQNDDNFLNIIYEAYLFSMTQAAMKKTM | binds | – |

Reference: paper PMC11387620
